# Some results were stated once for a whole list of compounds, not compound by compound. Some compounds share one range, which may span the group rather than tell each member.
# Amino acid sequences for entries named in this document (tags omitted). A change or cut given only in a name is not applied to a line headed by its entry.
# UniProt Q9Y5N1: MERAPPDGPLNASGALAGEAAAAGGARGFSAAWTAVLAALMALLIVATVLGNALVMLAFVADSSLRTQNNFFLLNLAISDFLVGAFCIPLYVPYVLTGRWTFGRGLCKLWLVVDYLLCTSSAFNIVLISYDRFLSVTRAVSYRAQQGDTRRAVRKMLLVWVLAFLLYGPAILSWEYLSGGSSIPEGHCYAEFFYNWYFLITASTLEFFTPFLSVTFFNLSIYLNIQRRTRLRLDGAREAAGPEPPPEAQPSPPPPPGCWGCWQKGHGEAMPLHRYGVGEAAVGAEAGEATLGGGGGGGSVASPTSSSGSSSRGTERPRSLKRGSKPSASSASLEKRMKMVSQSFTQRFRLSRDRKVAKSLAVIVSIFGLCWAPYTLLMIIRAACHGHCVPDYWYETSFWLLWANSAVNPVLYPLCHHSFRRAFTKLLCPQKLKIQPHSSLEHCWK
# Molecular target: T1, human histamine H3 receptor (Homo sapiens, UniProt Q9Y5N1)
# T1 construct: expressed in transfected cells; host or cells: CHO K1 cells carrying pSwitch, transfected with pGeneH3 and induced with mifepristone; membranes of clone 3H3
# Experiment: Histamine H3 functional antagonist assay
# Format: biochemical
# Conditions: membranes of CHO K1 cells expressing human histamine H3; [35S]GTPγS SPA; histamine 0.3 μM
row,Compound,antagonism (pKb)
1,"COCCNC(=O)c1ccc(Oc2ccc3c(c2)CCN(C2CCC2)CC3)nc1 [Example 202, 6-[(3-Cyclobutyl-2,3,4,5-tetrahydro-1H-3-benzazepin-7-yl)oxy]-N-[2-(methyloxy)ethyl]-3-pyridinecarboxamide]",6.5-10.5 pKb
2,"CCN(CCOC)C(=O)c1ccc(Oc2ccc3c(c2)CCN(C2CCC2)CC3)cc1 [Example 203, 4-[(3-Cyclobutyl-2,3,4,5-tetrahydro-1H-3-benzazepin-7-yl)oxy]-N-ethyl-N-[2-(methyloxy)ethyl]benzamide]",6.5-10.5 pKb
3,"CNC(=O)c1ccc(Oc2ccc3c(c2)CCN(C2CCC2)CC3)cc1 [Example 204, 4-[(3-Cyclobutyl-2,3,4,5-tetrahydro-1H-3-benzazepin-7-yl)oxy]-N-methylbenzamide]",6.5-10.5 pKb
4,"c1cncc(Oc2ccc3c(c2)CCN(C2CCC2)CC3)c1 [Example 205, 3-Cyclobutyl-7-(3-pyridinyloxy)-2,3,4,5-tetrahydro-1H-3-benzazepine]",6.5-10.5 pKb
5,"N#Cc1ccc(Oc2ccc3c(c2)CCN(C2CCC2)CC3)cn1 [Example 206, 5-[(3-Cyclobutyl-2,3,4,5-tetrahydro-1H-3-benzazepin-7-yl)oxy]-2-pyridinecarbonitrile]",6.5-10.5 pKb
6,"Ic1ccc(Oc2ccc3c(c2)CCN(C2CCC2)CC3)nc1 [Example 207, 3-Cyclobutyl-7-[(5-iodo-2-pyridinyl)oxy]-2,3,4,5-tetrahydro-1H-3-benzazepine]",6.5-10.5 pKb
7,"O=[N+]([O-])c1ccc(Oc2ccc3c(c2)CCN(C2CCC2)CC3)nc1 [Example 208, 3-Cyclobutyl-7-[(5-nitro-2-pyridinyl)oxy]-2,3,4,5-tetrahydro-1H-3-benzazepine]",6.5-10.5 pKb
8,"CC(=O)Nc1ccc(Oc2ccc3c(c2)CCN(C2CCC2)CC3)nc1 [Example 209, N-{6-[(3-Cyclobutyl-2,3,4,5-tetrahydro-1H-3-benzazepin-7-yl)oxy]-3-pyridinyl}acetamide]",6.5-10.5 pKb
9,"CC(=O)Nc1cnc(Oc2ccc3c(c2)CCN(C2CCC2)CC3)s1 [Example 210, N-{2-[(3-Cyclobutyl-2,3,4,5-tetrahydro-1H-3-benzazepin-7-yl)oxy]-1,3-thiazol-5-yl}acetamide]",6.5-10.5 pKb
10,"O=[N+]([O-])c1ccc(Oc2ccc3c(c2)CCN(C2CCC2)CC3)s1 [Example 211, 3-Cyclobutyl-7-[(5-nitro-2-thienyl)oxy]-2,3,4,5-tetrahydro-1H-3-benzazepine]",6.5-10.5 pKb
11,"CC(=O)Nc1ccc(Oc2ccc3c(c2)CCN(C2CCC2)CC3)s1 [Example 212, N-{5-[(3-Cyclobutyl-2,3,4,5-tetrahydro-1H-3-benzazepin-7-yl)oxy]-2-thienyl}acetamide]",6.5-10.5 pKb
12,"O=c1ccc(Oc2ccc3c(c2)CCN(C2CCC2)CC3)c[nH]1 [Example 213, 5-[(3-Cyclobutyl-2,3,4,5-tetrahydro-1H-3-benzazepin-7-yl)oxy]-2(1H)-pyridinone]",6.5-10.5 pKb
13,"CC(=O)c1ccc(Oc2ccc3c(c2)CCN(C2CCC2)CC3)nc1 [Example 214, 1-{6-[(3-Cyclobutyl-2,3,4,5-tetrahydro-1H-3-benzazepin-7-yl)oxy]-3-pyridinyl}ethanone]",6.5-10.5 pKb
14,"c1cc(-c2ccc(Oc3ccc4c(c3)CCN(C3CCC3)CC4)nc2)[nH]n1 [Example 215, 3-Cyclobutyl-7-{[5-(1H-pyrazol-5-yl)-2-pyridinyl]oxy}-2,3,4,5-tetrahydro-1H-3-benzazepine]",6.5-10.5 pKb
15,"Cc1nnc(-c2ccc(Oc3ccc4c(c3)CCN(C3CCC3)CC4)nc2)o1 [Example 216, 3-Cyclobutyl-7-{[5-(5-methyl-1,3,4-oxadiazol-2-yl)-2-pyridinyl]oxy}-2,3,4,5-tetrahydro-1H-3-benzazepine]",6.5-10.5 pKb
16,"O=C1CCCCN1c1ccc(Oc2ccc3c(c2)CCN(C2CCC2)CC3)nc1 [Example 218, 1-{6-[(3-Cyclobutyl-2,3,4,5-tetrahydro-1H-3-benzazepin-7-yl)oxy]-3-pyridinyl}-2-piperidinone]",6.5-10.5 pKb
17,"O=C1OCCN1c1ccc(Oc2ccc3c(c2)CCN(C2CCC2)CC3)nc1 [Example 220, 3-{6-[(3-Cyclobutyl-2,3,4,5-tetrahydro-1H-3-benzazepin-7-yl)oxy]-3-pyridinyl}-1,3-oxazolidin-2-one]",6.5-10.5 pKb
18,"c1cnn(-c2ccc(Oc3ccc4c(c3)CCN(C3CCC3)CC4)nc2)c1 [Example 221, 3-Cyclobutyl-7-{[5-(1H-pyrazol-1-yl)-2-pyridinyl]oxy}-2,3,4,5-tetrahydro-1H-3-benzazepine]",6.5-10.5 pKb
19,"CNC(=O)c1ccc(Oc2ccc3c(c2)CCN(C2CCCC2)CC3)nc1 [Example 223, 6-[(3-Cyclopentyl-2,3,4,5-tetrahydro-1H-3-benzazepin-7-yl)oxy]-N-methyl-3-pyridinecarboxamide]",6.5-10.5 pKb

row,Compound,antagonism (pKb)
1,"CNC(=O)c1ccc(Oc2ccc3c(c2)CCN(C2CCCC2C)CC3)nc1 (centres unmarked) [Example 224, N-Methyl-6-{[3-(2-methylcyclopentyl)-2,3,4,5-tetrahydro-1H-3-benzazepin-7-yl]oxy}-3-pyridinecarboxamide]",6.5-10.5 pKb
2,"CNC(=O)c1ccc(Oc2cc3c(cc2I)CCN(C2CCC2)CC3)nc1 [Example 225, 6-[(3-Cyclobutyl-8-iodo-2,3,4,5-tetrahydro-1H-3-benzazepin-7-yl)oxy]-N-methyl-3-pyridinecarboxamide]",6.5-10.5 pKb
3,"COc1cc(Oc2ccc3c(c2)CCN(C2CCC2)CC3)nc2ccc(C)cc12 [Example 227, 3-Cyclobutyl-7-{[6-methyl-4-(methyloxy)-2-quinolinyl]oxy}-2,3,4,5-tetrahydro-1H-3-benzazepine]",6.5-10.5 pKb
4,"COc1cc(Oc2ccc3c(c2)CCN(C2CCC2)CC3)nc2cnccc12 [Example 228, 3-Cyclobutyl-7-{[4-(methyloxy)-1,7-naphthyridin-2-yl]oxy}-2,3,4,5-tetrahydro-1H-3-benzazepine]",6.5-10.5 pKb
5,"c1cnc2ccc(Oc3ccc4c(c3)CCN(C3CCC3)CC4)nc2c1 [Example 229, 3-Cyclobutyl-7-(1,5-naphthyridin-2-yloxy)-2,3,4,5-tetrahydro-1H-3-benzazepine]",6.5-10.5 pKb
6,"CC(=O)Nc1ccc2cc(C)c(Oc3ccc4c(c3)CCN(C3CCC3)CC4)nc2n1 [Example 230, N-{7-[(3-Cyclobutyl-2,3,4,5-tetrahydro-1H-3-benzazepin-7-yl)oxy]-6-methyl-1,8-naphthyridin-2-yl}acetamide]",6.5-10.5 pKb
7,"O=C1NC(=O)c2nc(Oc3ccc4c(c3)CCN(C3CCC3)CC4)ccc21 [Example 233, 2-[(3-Cyclobutyl-2,3,4,5-tetrahydro-1H-3-benzazepin-7-yl)oxy]-5H-pyrrolo[3,4-b]pyridine-5,7(6H)-dione]",6.5-10.5 pKb
8,"O=C1NC(O)c2nc(Oc3ccc4c(c3)CCN(C3CCC3)CC4)ccc21 (centres unmarked) [Example 234, 2-[(3-Cyclobutyl-2,3,4,5-tetrahydro-1H-3-benzazepin-7-yl)oxy]-7-hydroxy-6,7-dihydro-5H-pyrrolo[3,4-b]pyridin-5-one]",6.5-10.5 pKb
9,"O=C1NCc2nc(Oc3ccc4c(c3)CCN(C3CCC3)CC4)ccc21 [Example 235, 2-[(3-Cyclobutyl-2,3,4,5-tetrahydro-1H-3-benzazepin-7-yl)oxy]-6,7-dihydro-5H-pyrrolo[3,4-b]pyridin-5-one]",6.5-10.5 pKb
10,O=C(Nc1ccc(Oc2ccc3c(c2)CCN(C2CCC2)CC3)nc1)N1CCOCC1 [Example 237],6.5-10.5 pKb
11,"CC(C)C(=O)Nc1ccc(Oc2ccc3c(c2)CCN(C2CCC2)CC3)nc1 [Example 240, N-[6-(3-Cyclobutyl-2,3,4,5-tetrahydro-1H-benzo[d]azepin-7-yloxy)-pyridin-3-yl]isobutyramide]",6.5-10.5 pKb
12,"O=C(Nc1ccc(Oc2ccc3c(c2)CCN(C2CCC2)CC3)nc1)C1CCOCC1 [Example 241, Tetrahydro-pyran-4-carboxylic acid [6-(3-cyclobutyl-2,3,4,5-tetrahydro-1H-benzo[d]azepin-7-yloxy)-pyridin-3-yl]-amide]",6.5-10.5 pKb
13,"COc1cc(OC)nc(-c2ccc(Oc3ccc4c(c3)CCN(C3CCC3)CC4)nc2)n1 [Example 242, 3-Cyclobutyl-7-[5-(4,6-dimethoxy-pyrimidin-2-yl)-pyridin-2-yloxy]-2,3,4,5-tetrahydro-1H-benzo[d]azepine]",6.5-10.5 pKb
14,"CS(=O)(=O)c1ccc(-c2cnc(Oc3ccc4c(c3)CCN(C3CCC3)CC4)cn2)cc1 [Example 243, 3-Cyclobutyl-7-[5-(4-methanesulfonyl-phenyl)-pyrazine-2-yloxy)-2,3,4,5-tetrahydro-1H-benzo[d]azepine]",6.5-10.5 pKb
15,"CC(=O)Nc1ccc(-c2cnc(Oc3ccc4c(c3)CCN(C3CCC3)CC4)cn2)cc1 [Example 244, N-{4-[5-(3-Cyclobutyl-2,3,4,5-tetrahydro-1H-benzo[d]azepin-7-yloxy)-pyrazin-2-yl]-phenyl}-acetamide]",6.5-10.5 pKb
16,"Cc1cnc(Oc2ccc3c(c2)CCN(C2CCC2)CC3)c(C)c1 [Example 245, 3-Cyclobutyl-7-(3,5-dimethyl-pyridin-2-yloxy)-2,3,4,5-tetrahydro-1H-benzo[d]azepine]",6.5-10.5 pKb
17,"O=S(=O)(c1ccc(Oc2ccc3c(c2)CCN(C2CCC2)CC3)nc1)N1CCOCC1 [Example 246, 3-Cyclobutyl-7-[5-(morpholine-4-sulfonyl)-pyridin-2-yloxy]-2,3,4,5-tetrahydro-1H-benzo[d]azepine]",6.5-10.5 pKb
18,"Cc1cc2ccnc(Oc3ccc4c(c3)CCN(C3CCC3)CC4)c2o1 [Example 247, 3-Cyclobutyl-7-(2-methyl-furo[2,3-c]pyridin-7-yloxy)-2,3,4,5-tetrahydro-1H-benzo[d]azepine]",6.5-10.5 pKb
19,"CCOc1ccnc(Oc2ccc3c(c2)CCN(C2CCC2)CC3)c1C#N [Example 248, 2-(3-Cyclobutyl-2,3,4,5-tetrahydro-1H-benzo[d]azepin-7-yloxy)-4-ethoxy-nicotinonitrile]",6.5-10.5 pKb

# Reference: patent publication US7704994B2, “Benzazepine derivatives for the treatment of neurological disorders” (Glaxo Group Limited, priority 2002, dated 2010)
